Measurements from paper PMC4777444.
Read-outs that look alike come from different tables or passages of the source. These are yes or no findings as the source states them, for the method shown. For some of these results: Binding seen in cells or lysates may run through a third protein. Some results given as binding are weak or reduced against the parent protein; the word gives no strength. For some of these results: Where a sequence is shown, tags or fusion partners need not be part of it. One block for each molecule: values may come before it.

Sequences of proteins named here, by UniProt entry; tags and fusion partners are left off.
UniProt Q8N108: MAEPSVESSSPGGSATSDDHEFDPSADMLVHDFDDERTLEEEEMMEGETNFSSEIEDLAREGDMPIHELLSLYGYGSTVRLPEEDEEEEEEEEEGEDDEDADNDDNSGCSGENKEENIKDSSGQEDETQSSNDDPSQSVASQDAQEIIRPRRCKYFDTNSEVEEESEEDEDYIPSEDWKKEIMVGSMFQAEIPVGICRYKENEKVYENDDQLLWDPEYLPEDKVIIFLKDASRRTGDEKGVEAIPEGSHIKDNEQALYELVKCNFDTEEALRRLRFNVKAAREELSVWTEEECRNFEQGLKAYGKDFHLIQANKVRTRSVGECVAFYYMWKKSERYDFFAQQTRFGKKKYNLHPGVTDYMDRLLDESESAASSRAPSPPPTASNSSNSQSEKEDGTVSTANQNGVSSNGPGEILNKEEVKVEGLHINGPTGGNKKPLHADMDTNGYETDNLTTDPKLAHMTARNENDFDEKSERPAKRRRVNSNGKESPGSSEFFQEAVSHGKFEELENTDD
UniProt Q92769: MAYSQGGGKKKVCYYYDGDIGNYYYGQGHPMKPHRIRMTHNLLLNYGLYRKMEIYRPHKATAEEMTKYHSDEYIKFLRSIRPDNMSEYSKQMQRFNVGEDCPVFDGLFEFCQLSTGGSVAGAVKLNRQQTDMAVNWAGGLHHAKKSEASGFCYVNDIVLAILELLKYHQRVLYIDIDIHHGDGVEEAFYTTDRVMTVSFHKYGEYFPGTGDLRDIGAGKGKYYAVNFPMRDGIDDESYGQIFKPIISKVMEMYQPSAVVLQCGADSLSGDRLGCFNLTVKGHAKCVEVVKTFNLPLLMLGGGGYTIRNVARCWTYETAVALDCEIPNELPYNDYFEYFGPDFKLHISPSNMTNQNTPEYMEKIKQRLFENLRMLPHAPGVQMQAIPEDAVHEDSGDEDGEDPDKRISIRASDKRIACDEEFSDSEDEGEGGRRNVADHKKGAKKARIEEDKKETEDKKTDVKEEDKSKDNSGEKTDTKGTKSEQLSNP
UniProt Q13185: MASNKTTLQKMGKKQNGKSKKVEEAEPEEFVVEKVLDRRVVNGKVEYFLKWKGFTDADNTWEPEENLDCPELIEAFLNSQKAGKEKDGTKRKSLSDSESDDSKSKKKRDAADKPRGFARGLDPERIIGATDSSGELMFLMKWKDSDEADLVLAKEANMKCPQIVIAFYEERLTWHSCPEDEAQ
UniProt Q96KQ7: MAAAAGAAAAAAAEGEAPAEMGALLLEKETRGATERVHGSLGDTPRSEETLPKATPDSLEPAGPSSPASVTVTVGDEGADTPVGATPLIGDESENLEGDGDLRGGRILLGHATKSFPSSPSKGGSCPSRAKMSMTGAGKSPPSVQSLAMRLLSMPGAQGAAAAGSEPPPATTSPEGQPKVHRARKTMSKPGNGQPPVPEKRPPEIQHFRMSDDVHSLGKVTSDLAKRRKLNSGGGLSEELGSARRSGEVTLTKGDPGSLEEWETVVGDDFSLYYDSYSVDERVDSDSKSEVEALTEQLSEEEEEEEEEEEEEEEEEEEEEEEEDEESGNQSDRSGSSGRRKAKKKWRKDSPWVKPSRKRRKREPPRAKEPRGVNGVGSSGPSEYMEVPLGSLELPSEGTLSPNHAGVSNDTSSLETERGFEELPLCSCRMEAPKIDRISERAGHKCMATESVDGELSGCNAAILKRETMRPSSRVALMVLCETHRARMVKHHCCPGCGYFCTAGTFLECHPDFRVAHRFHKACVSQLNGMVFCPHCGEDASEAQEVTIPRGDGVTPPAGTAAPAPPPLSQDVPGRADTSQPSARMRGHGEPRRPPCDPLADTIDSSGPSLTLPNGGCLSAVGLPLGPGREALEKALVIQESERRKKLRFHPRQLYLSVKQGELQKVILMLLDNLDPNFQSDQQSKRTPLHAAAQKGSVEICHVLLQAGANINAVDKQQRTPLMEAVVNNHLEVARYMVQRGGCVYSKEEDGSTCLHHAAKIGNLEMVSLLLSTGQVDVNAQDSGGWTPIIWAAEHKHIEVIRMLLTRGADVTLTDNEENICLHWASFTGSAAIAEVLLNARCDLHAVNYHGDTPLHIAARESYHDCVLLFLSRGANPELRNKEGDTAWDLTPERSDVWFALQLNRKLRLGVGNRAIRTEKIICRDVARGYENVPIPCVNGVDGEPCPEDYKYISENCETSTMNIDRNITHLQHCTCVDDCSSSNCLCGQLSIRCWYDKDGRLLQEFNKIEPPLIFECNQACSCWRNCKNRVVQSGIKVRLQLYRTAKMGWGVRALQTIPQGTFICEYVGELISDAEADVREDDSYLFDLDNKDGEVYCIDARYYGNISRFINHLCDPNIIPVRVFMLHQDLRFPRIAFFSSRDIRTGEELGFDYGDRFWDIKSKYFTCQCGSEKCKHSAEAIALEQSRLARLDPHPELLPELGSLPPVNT
UniProt Q13547: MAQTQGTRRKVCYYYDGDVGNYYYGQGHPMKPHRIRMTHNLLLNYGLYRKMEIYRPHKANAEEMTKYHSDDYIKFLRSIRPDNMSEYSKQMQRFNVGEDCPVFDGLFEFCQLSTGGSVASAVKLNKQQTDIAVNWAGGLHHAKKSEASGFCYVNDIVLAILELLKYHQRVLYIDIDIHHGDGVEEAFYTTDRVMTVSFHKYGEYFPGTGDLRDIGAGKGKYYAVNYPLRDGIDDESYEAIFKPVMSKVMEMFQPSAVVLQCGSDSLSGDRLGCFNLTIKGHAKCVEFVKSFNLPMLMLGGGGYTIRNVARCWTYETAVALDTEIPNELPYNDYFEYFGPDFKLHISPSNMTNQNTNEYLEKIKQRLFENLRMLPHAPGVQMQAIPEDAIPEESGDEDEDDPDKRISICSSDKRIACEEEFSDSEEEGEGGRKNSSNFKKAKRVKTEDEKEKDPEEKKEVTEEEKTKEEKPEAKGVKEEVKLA
UniProt Q13263: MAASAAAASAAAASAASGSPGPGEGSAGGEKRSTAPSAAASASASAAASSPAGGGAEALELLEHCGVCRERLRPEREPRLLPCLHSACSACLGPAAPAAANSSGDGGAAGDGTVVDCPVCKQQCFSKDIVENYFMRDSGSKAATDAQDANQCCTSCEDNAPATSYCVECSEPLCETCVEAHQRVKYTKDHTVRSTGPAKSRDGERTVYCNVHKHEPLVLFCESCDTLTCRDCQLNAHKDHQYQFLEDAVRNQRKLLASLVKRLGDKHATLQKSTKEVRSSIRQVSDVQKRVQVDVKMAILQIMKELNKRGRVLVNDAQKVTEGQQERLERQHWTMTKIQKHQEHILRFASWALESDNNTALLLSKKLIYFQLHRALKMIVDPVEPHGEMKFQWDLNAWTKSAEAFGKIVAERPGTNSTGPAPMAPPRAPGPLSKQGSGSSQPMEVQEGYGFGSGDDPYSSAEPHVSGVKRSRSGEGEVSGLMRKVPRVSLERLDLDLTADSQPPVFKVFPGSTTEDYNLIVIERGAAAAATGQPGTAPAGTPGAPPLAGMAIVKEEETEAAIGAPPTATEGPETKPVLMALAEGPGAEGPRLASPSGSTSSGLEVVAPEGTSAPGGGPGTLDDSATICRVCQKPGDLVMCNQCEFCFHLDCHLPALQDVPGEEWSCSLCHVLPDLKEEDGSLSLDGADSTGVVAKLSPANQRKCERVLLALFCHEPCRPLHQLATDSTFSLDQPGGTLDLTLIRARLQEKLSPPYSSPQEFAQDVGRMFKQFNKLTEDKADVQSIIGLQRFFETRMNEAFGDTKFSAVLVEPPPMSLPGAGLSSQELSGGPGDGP

Tests used:
[1] = biological target: T1, His6-Protein-C-tagged BAHD1 (UniProt Q8TBE0); test: tandem affinity purification with immunoblot; His6-Protein-C-BAHD1 from solubilized chromatin extracts of HPT-BAHD1 cells on anti-protein C affinity matrix (E1) and nickel-Sepharose (E2); immunoblots of inputs, E1 and E2; HPT-CT cells as control
T1 sequence: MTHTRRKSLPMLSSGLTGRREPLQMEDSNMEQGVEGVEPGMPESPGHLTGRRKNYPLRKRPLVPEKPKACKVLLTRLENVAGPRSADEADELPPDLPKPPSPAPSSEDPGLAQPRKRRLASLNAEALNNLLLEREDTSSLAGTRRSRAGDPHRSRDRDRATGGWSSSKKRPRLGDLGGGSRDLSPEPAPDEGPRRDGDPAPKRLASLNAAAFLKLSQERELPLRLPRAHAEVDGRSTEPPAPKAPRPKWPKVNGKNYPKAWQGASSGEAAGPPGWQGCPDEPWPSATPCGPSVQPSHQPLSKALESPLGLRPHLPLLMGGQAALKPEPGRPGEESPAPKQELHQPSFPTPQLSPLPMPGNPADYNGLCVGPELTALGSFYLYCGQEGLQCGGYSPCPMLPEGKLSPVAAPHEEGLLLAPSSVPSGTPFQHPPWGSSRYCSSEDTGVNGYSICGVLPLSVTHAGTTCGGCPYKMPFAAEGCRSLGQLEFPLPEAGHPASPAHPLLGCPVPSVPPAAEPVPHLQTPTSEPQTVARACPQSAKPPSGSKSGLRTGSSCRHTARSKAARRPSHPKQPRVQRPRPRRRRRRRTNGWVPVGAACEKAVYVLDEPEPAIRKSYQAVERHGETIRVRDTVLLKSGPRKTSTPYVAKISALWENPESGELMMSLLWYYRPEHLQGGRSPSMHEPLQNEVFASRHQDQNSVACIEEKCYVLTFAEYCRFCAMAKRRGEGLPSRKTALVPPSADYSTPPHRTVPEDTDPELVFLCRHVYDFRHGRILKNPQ

YFPc-BAHD1-ΔcPRR = biological target: T2, YFPc-BAHD1-ΔcPRR (UniProt Q8TBE0); test: co-IP; nuclear extracts (soluble and insoluble fractions sonicated and mixed) of HEK293-FT cells transiently expressing tagged BAHD1; overnight at 4°C with 1-3 μg antibody (MIER1, V5, HDAC2, HP1γ or YFP/GFP; IgG control), Dynabeads Protein G; washes in Tris 20 mM pH 7.65, NaCl 150 mM, 0.05% IGEPAL; immunoblot
T2 sequence: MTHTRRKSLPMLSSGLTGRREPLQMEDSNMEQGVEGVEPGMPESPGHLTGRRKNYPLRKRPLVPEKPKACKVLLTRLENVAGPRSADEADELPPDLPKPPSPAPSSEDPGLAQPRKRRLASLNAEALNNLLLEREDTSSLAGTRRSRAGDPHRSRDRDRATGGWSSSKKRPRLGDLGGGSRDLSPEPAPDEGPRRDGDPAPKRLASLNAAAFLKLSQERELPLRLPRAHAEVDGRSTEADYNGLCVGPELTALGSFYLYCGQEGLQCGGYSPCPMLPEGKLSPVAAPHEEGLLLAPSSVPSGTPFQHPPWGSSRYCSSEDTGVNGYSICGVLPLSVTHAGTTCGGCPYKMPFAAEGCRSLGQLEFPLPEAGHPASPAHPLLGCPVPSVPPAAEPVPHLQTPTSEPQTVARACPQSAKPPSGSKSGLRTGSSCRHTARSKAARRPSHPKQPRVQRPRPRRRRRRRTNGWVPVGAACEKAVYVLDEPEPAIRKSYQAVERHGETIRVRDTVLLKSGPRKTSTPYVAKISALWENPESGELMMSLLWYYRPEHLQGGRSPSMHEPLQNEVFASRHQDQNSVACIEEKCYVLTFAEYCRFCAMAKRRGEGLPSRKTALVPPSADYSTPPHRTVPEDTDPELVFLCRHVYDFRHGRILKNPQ

YFPc-BAHD1-ΔBAH = biological target: T3, YFPc-BAHD1-ΔBAH (UniProt Q8TBE0); test: as above
T3 sequence: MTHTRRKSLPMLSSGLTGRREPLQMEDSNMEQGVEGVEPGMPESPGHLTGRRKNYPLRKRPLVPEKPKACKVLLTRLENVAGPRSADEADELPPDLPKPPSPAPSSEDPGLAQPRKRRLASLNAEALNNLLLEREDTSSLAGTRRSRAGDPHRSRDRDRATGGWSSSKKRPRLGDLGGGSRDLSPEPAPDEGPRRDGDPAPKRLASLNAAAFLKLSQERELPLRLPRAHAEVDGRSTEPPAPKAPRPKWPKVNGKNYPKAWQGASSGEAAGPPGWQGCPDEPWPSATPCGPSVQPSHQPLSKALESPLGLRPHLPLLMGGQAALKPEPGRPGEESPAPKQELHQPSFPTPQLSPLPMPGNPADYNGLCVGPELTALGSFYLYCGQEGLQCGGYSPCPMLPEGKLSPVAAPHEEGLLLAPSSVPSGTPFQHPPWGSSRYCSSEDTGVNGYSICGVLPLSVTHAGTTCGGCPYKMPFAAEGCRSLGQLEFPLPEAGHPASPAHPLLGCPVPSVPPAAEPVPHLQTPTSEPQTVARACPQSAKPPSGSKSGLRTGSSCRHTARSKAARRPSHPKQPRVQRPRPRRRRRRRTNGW

YFPc-BAHD1 = biological target: T4, YFPc-BAHD1 (UniProt Q8TBE0); test: as above
T4 sequence: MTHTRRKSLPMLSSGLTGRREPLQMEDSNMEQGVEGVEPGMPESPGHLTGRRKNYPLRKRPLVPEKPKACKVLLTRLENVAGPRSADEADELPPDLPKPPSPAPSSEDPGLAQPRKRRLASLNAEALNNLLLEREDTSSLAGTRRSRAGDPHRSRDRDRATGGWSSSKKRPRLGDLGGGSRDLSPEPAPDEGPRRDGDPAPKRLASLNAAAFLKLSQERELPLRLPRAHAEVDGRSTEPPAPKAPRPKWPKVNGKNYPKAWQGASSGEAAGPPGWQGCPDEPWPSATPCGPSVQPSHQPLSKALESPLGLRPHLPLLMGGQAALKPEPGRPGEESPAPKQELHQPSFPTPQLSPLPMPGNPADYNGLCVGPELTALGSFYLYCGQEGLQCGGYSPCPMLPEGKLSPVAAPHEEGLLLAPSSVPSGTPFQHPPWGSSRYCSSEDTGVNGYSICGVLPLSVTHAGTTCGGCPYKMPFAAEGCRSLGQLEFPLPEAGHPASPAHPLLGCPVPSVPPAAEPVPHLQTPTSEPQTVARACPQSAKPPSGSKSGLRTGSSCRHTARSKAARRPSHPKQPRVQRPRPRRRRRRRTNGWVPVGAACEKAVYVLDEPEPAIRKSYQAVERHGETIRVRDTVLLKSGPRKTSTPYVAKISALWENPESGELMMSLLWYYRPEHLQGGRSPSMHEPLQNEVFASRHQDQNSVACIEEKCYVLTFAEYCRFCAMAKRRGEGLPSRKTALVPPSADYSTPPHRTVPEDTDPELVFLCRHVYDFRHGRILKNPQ

V5-tagged BAHD1 = biological target: T5, V5-tagged BAHD1 (UniProt Q8TBE0); test: as above
T5 sequence: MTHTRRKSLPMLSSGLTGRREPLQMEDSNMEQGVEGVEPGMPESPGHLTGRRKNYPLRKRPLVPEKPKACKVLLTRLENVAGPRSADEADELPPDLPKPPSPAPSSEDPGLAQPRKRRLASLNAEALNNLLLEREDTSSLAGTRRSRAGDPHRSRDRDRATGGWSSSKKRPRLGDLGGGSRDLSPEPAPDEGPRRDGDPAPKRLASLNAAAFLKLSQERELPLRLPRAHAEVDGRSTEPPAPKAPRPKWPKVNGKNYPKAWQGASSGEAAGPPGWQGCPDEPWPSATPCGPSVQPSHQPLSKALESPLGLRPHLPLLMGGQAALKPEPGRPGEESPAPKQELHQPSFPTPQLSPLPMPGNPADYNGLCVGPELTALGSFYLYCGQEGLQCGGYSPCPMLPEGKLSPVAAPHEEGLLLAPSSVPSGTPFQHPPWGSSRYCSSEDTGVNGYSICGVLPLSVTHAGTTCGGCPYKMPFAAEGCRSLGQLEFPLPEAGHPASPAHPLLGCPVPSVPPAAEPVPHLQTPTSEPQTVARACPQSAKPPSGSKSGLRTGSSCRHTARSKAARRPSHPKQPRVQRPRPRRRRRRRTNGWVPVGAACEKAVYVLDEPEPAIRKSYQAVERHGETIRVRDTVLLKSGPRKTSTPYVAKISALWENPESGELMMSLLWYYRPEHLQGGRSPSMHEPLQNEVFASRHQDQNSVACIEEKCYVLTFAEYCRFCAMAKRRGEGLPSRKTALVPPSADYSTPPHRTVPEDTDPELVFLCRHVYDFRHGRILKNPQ

[2] = biological target: MIER1 (mesoderm induction early response protein 1) (human (endogenous in HEK293)) (UniProt Q8N108); test: as above
[3] = biological target: HDAC2 (human (endogenous in HEK293)) (UniProt Q92769); test: as above
[4] = biological target: HDAC2 (human (endogenous in HEK293)) (UniProt Q92769); test: as above; remark: listed apart in the source

Molecule: HP1γ (from UniProt Q13185 1-183)
binding [1]: binds
binding (V5-tagged BAHD1): binds
binding [2]: binds
binding (YFPc-BAHD1-ΔcPRR): binds
binding [3]: binds weakly
binding (YFPc-BAHD1-ΔBAH): binds
binding (YFPc-BAHD1): binds

B1: MBD1 (protein, UniProt Q9UIS9 1-605)
chain: MAEDWLDCPALGPGWKRREVFRKSGATCGRSDTYYQSPTGDRIRSKVELTRYLGPACDLTLFDFKQGILCYPAPKAHPVAVASKKRKKPSRPAKTRKRQVGPQSGEVRKEAPRDETKADTDTAPASFPAPGCCENCGISFSGDGTQRQRLKTLCKDCRAQRIAFNREQRMFKRVGCGECAACQVTEDCGACSTCLLQLPHDVASGLFCKCERRRCLRIVERSRGCGVCRGCQTQEDCGHCPICLRPPRPGLRRQWKCVQRRCLRGKHARRKGGCDSKMAARRRPGAQPLPPPPPSQSPEPTEPHPRALAPSPPAEFIYYCVDEDELQPYTNRRQNRKCGACAACLRRMDCGRCDFCCDKPKFGGSNQKRQKCRWRQCLQFAMKRLLPSVWSESEDGAGSPPPYRRRKRPSSARRHHLGPTLKPTLATRTAQPDHTQAPTKQEAGGGFVLPPPGTDLVFLREGASSPVQVPGPVAASTEALLQEAQCSGLSWVVALPQVKQEKADTQDEWTPGTAVLTSPVLVPGCPSKAVDPGLPSVKQEPPDPEEDKEENKDDSASKLAPEEEAGGAGTPVITEIFSLGGTRFRDTAVWLPRSKDLKKPGARKQ
binding [1]: binds

B2: V5-tagged BAHD1 (protein, UniProt Q8TBE0 1-780)
chain: MTHTRRKSLPMLSSGLTGRREPLQMEDSNMEQGVEGVEPGMPESPGHLTGRRKNYPLRKRPLVPEKPKACKVLLTRLENVAGPRSADEADELPPDLPKPPSPAPSSEDPGLAQPRKRRLASLNAEALNNLLLEREDTSSLAGTRRSRAGDPHRSRDRDRATGGWSSSKKRPRLGDLGGGSRDLSPEPAPDEGPRRDGDPAPKRLASLNAAAFLKLSQERELPLRLPRAHAEVDGRSTEPPAPKAPRPKWPKVNGKNYPKAWQGASSGEAAGPPGWQGCPDEPWPSATPCGPSVQPSHQPLSKALESPLGLRPHLPLLMGGQAALKPEPGRPGEESPAPKQELHQPSFPTPQLSPLPMPGNPADYNGLCVGPELTALGSFYLYCGQEGLQCGGYSPCPMLPEGKLSPVAAPHEEGLLLAPSSVPSGTPFQHPPWGSSRYCSSEDTGVNGYSICGVLPLSVTHAGTTCGGCPYKMPFAAEGCRSLGQLEFPLPEAGHPASPAHPLLGCPVPSVPPAAEPVPHLQTPTSEPQTVARACPQSAKPPSGSKSGLRTGSSCRHTARSKAARRPSHPKQPRVQRPRPRRRRRRRTNGWVPVGAACEKAVYVLDEPEPAIRKSYQAVERHGETIRVRDTVLLKSGPRKTSTPYVAKISALWENPESGELMMSLLWYYRPEHLQGGRSPSMHEPLQNEVFASRHQDQNSVACIEEKCYVLTFAEYCRFCAMAKRRGEGLPSRKTALVPPSADYSTPPHRTVPEDTDPELVFLCRHVYDFRHGRILKNPQ
binding [4]: binds weakly

The next lines start with the values.

binding [1]: binds
Molecule: G9a (from UniProt Q96KQ7 1-1210) (enzyme)

binding [1]: binds
Molecule: HDAC1 (from UniProt Q13547 1-482) (enzyme)

binding [1]: binds
binding (YFPc-BAHD1-ΔcPRR): binds
binding (YFPc-BAHD1-ΔBAH): no binding
binding (YFPc-BAHD1): binds
Molecule: HDAC2 (from UniProt Q92769 1-488) (enzyme)

binding [1]: binds
Molecule: KAP1 (from UniProt Q13263 1-835)
